Assay results published in patent US20110319360A1, “Method of including apoptosis/Cell death in leukemia cell using a purine nucleoside analogue” (U.S. Department of Veterans Affairs, priority 2010, published 2011).
At least one compound was matched to its structure with a doubt left.

Assays:
[1] = test system: CD34+ hematopoietic progenitor cells (myeloid colonies); assay: Colony formation assay, myeloid colonies; assay type: cell-based, human
Procedure: (§1) CD34^+ hematopoietic progenitor cells were isolated from PBMCs from two healthy donors using the CD34 Microbead Kit (Miltenyi Biotec, Auburn, Calif.). 10^3 CD34^+-enriched cells were cultured in a 35 mm culture plate (1000 cells/plate) with or without LMP-420 or fludarabine in 1.1 ml Human Methylcellulose Complete Media (R&D Systems) according to the manufacturer's protocol. Plates were incubated for 14 days at 37° C. in humidified 5% CO2. Each treatment group was tested in triplicate. Colonies on plates were scored by two independent observers, blinded to the treatment groups, by microscopic evaluation under 10× and 20× power. Colonies were categorized as being of either erythroid or myeloid lineage.

[2] = test system: CD34+ hematopoietic progenitor cells (erythroid colonies); assay: Colony formation assay, erythroid colonies; assay type: cell-based, human
Procedure: as §1

With `Nc1nc(F)nc2c1ncn2[C@@H]1O[C@H](COP(=O)(O)O)[C@@H](O)[C@@H]1O` [Fludarabine, fludarabine phosphate, reference compound] the “myeloid colony IC50 relative to CLL ED50” value [1] was “equal to” and the “erythroid colony IC50 relative to CLL ED50” value [2] was “four-fold above”.
